The values that follow come from paper PMC6044554.

Results are given in words; binding and its absence hold for the method and conditions named. Binding seen in cells or lysates may run through a third protein. Tags and fused reporters may be left off the sequences shown.

For this experiment, the target named is T1, Lmo2027-GST fusion protein (residues 31-367) (Listeria monocytogenes) (UniProt Q8Y5N0).
T1 sequence: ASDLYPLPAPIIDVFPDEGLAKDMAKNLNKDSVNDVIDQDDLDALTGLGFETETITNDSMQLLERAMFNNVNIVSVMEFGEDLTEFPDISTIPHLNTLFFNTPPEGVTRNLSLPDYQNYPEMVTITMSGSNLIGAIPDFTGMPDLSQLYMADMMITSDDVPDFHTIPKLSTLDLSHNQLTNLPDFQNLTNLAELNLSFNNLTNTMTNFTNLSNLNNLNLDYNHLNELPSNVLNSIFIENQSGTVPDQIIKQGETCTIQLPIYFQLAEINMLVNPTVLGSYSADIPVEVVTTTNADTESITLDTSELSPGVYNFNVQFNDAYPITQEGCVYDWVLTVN
Nature of the experiment: pull-down; GST or GST fusion bait on Glutathione Sepharose 4B incubated overnight with MDCK cell lysate; beads boiled in SDS sample buffer; Western blot with anti-afadin antibody; only the target purified.

Regarding “afadin (MDCK cells) (canine (endogenous in MDCK))”, the binding entry is “no binding”.
